According to the supplement of paper PMC7024190:
Structures can show the parent of a compound that is named as a salt. Some of the results follow. Repeats in this data set agree poorly, so a single value says little.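 The cells were human embryonic kidney cells carrying a Renilla luciferase gene, driven by the HSV-TK promoter, on a plasmid put in briefly by transfection. This is the first-round screen of about ten thousand compounds, looking for ones that raise reporter output.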

These compounds were tested on HEK 293FT (assay: log relative Renilla luciferase luminescence (reporter expression vs reference, reference not stated) (log (base not stated)); higher = higher recombinant reporter expression). Conditions: 10 µM; time after transfection 48 h.
Compound `C=C1CC=C(C)CC[C@@H]2[C@@H]1CC2(C)C` [caryophyllene [t(-)]] has a log of 0.105.
`CCN(CCCc1ccccc1)CCCc1ccccc1` [alverine citrate] was tested, and the log was -0.0348.
`CCCCC(CC)COC(=O)c1ccccc1O` (stereo not given) [octisalate] was tested, and the log was 0.0328.
With `CC(=O)[C@H]1CC[C@H]2[C@@H]3CC=C4C[C@@H](OC(=O)CCC(=O)O)CC[C@]4(C)[C@H]3CC[C@]12C` [pregnenolone succinate] the log was -0.068.
`CC(CCc1ccc(O)cc1)NCC(O)c1ccc(O)cc1` (stereo not given) [ractopamine hydrochloride] was tested, and the log was -0.0892.
`O=P(O)(O)C(O)(Cc1cccnc1)P(=O)(O)O` [risedronate sodium] was tested, and the log was -0.0406.
In the case of `COc1ccc(-n2nc(CCC(=O)N(C)O)cc2-c2ccc(Cl)cc2)cc1` [tepoxalin], the log is reported as -0.682.
`O=C(O)c1cc(O)c(O)c(O)c1` [gallic acid] was tested, and the log was -1.36.
For `CCN(CC)C(=O)N1CCN(C)CC1` [diethylcarbamazine citrate], the log was -0.00986.
`CC(C)=CCC/C(C)=C/COc1ccc2ccc(=O)oc2c1` [auraptene] was tested, and the log was -0.157.
`Cc1cc(CC(C)CC(C)(C)C)n(O)c(=O)c1` (stereo not given) [piroctone olamine] was tested, and the log was -0.99.
In the case of `COc1c(OC)c2occc2c2oc(=O)ccc12` [pimpinellin], the log is reported as 0.00912.
`CN1CCC[C@H]1c1cccnc1` [nicotine bitartrate] was tested, and the log was 0.19.
With `CCCC(C(=O)OCCN(CC)CC)(c1ccccc1)c1ccccc1` [proadifen hydrochloride] the log was -0.0202.
With `C[C@H](CCC(=O)NCC(=O)O)[C@H]1CC[C@H]2[C@@H]3[C@H](O)C[C@@H]4C[C@H](O)CC[C@]4(C)[C@H]3C[C@H](O)[C@]12C` [glycocholic acid] the log was -0.0811.
Work on `Clc1ccc(COC(Cn2ccnc2)c2ccc(Cl)cc2Cl)cc1` (stereo not given) [econazole nitrate] yielded a log of -0.0526.
Work on `Clc1ccccc1C(c1ccccc1)(c1ccccc1)n1ccnc1` [clotrimazole] yielded a log of -0.134.
In the case of `NC(=O)NO` [hydroxyurea], the log is reported as -0.0417.
`CO/N=C1\CN(c2nc3c(cc2F)c(=O)c(C(=O)O)cn3C2CC2)CC1CN` (stereo not given) [gemifloxacin mesylate] gave a log of 0.0999.
`CC(=O)c1ccc2c(c1)N(CCCN1CCN(CCO)CC1)c1ccccc1S2` [acetophenazine maleate] showed a log of -0.0934.
In the case of `O=C(O)c1cc(=O)c2c(OCC(O)COc3cccc4oc(C(=O)O)cc(=O)c34)cccc2o1` [cromolyn sodium], the log is reported as -0.103.
For `O=c1c(O)c(-c2ccccc2)oc2cc(O)cc(O)c12` [galangin], the log was -0.148.
`C=CCc1ccccc1OCC(O)CNC(C)C` (stereo not given) [alprenolol] gave a log of -0.0325.
For `NC[C@H]1CC[C@H](C(=O)O)CC1` [tranexamic acid], the log was -0.0724.
In the case of `Oc1c(Cl)cc(Cl)cc1Sc1cc(Cl)cc(Cl)c1O` [bithionate sodium], the log is reported as -1.25.
`CC(=O)OC(C)C[N+](C)(C)C` (stereo not given) [methacholine chloride] was tested, and the log was 0.109.
Work on `CCCCOc1ccc(CC(=O)NO)cc1` [bufexamac] yielded a log of 0.0865.
With `CCCCC[C@H](CC(=O)NO)C(=O)N[C@H](C(=O)N1CCC[C@H]1CO)C(C)C` [actinonin] the log was -0.412.
`Nc1nc(=O)c2c([nH]1)NCC(CNc1ccc(C(=O)N[C@@H](CCC(=O)O)C(=O)O)cc1)N2C=O` (stereo not given in full) [leucovorin calcium] was tested, and the log was 0.0943.
With `COc1ccc2nc3cc(Cl)ccc3c(Nc3cc(CN4CCCC4)c(O)c(CN4CCCC4)c3)c2n1` [pyronaridine tetraphosphate] the log was 0.0261.
Compound `O=C(O)/C=C/C=C/c1ccc2c(c1)OCO2` [piperic acid] has a log of 0.0859.
`CC(C)CCC[C@@H](C)[C@H]1CC[C@H]2[C@@H]3CC=C4C[C@@H](O)CC[C@]4(C)[C@H]3CC[C@]12C` [cholesterol] showed a log of 0.118.
Compound `Nc1ccn([C@@H]2O[C@H](CO)[C@@H](O)[C@H]2O)c(=O)n1` [cytidine] has a log of 0.0518.
In the case of `CN(C)CCC(c1ccccc1)c1ccccn1` (stereo not given) [pheniramine maleate], the log is reported as 0.0599.
Compound `C=CC(C1=CC(=O)C(OC)=CC1=O)c1ccc(O)cc1` (stereo not given) [dalbergione, 4-methoxy-4'-hydroxy-] has a log of -1.69.
